Experimental data published in PubChem BioAssay AID720504 (National Center for Advancing Translational Sciences (NCATS), 2013).
About 10,000 (2.8%) of roughly 360,000 compounds were called active. The inconclusive results got no clear call from the source; some entries with a clear call stand among them for comparison. Calls follow the shape of the dose curve; as a rule, active = well fitted inhibition curve with a large enough effect; inconclusive = small, poorly fitted or top-dose-only effect; inactive = flat fitted curve, though single readings scatter. A potency beside an inconclusive call is a rough fit, not a confirmed value.

Chains of the proteins cited; added tags and fusions are not shown.
UniProt P53350, whole entry, looked up: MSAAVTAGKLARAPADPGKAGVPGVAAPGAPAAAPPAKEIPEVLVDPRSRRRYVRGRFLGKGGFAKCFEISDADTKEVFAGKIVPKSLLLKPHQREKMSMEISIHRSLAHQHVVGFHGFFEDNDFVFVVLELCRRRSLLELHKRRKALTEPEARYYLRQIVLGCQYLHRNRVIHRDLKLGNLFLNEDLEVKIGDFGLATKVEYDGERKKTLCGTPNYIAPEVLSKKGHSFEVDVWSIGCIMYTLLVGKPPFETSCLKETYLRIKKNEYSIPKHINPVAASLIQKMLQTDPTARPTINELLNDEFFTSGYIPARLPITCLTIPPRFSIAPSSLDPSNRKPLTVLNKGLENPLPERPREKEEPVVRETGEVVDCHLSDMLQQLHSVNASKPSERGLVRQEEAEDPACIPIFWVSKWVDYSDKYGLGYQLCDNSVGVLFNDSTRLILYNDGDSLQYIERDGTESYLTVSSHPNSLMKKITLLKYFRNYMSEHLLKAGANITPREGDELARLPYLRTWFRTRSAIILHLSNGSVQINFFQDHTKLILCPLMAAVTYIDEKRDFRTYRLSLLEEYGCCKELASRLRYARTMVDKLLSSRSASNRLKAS

The compounds below were run against Serine/threonine-protein kinase PLK1 (Homo sapiens) (UniProt P53350) (assay: qHTS for Inhibitors of PLK1-PDB (polo-like kinase 1 - polo-box domain): Primary Screen). Conditions: Plk1 PBD binding of FITC phosphopeptide, fluorescence polarization.
% is scaled to controls: 0 for no effect and ±100 for the full control effect; potency is read from the fitted curve at half-maximal effect.
Also: nearly all actives have a fitted effect of over 65% in size.
For max response, negative = inhibition in this document: series mostly up to about 57 µM.

Compound	Potency	max response, negative = inhibition
O=C(O)c1nn(Cc2ncc(-c3cccc(Cl)c3)o2)c(=O)c2ccccc12	inconclusive: 21.2 µM [inhibitor, partial curve]	–
Cc1cc(-c2nn(-c3ccccc3F)cc2CNCCc2cnc[nH]2)c(C)s1	–	inactive: -1.48%
Cc1ccc(C(N)=S)c(C)c1	inconclusive: 37.7 µM [inhibitor, partial curve, poor fit]	–
COc1ccccc1CNCc1cc(=O)oc2c(C)c(C)ccc12	–	inactive: -1.39%
COc1ccc(NC(=O)Nc2ccc(O)c3ccccc23)cc1	inconclusive: 10.6 µM [inhibitor, partial curve]	–
COc1cc(/C=N/n2cnnc2)ccc1OC(=O)c1cccnc1	active: 7.52 µM	–
CCOC(=O)c1ccc(N2C(=O)CC(Sc3nnc(C)s3)C2=O)cc1 (centres undefined)	inconclusive: 21.2 µM [inhibitor, single point]	–
CCCC(c1nnnn1Cc1ccccc1)N1CCN(c2ccccc2OC)CC1 (centres undefined)	–	inactive: -3.27%
COC(=O)[C@H]1C[C@@]2(O)CN(S(=O)(=O)c3ccc(C)cc3)C[C@@]2(OC(=O)NCc2ccccc2)C[C@H]1C(=O)OC	–	inactive: -12.5%
Cc1cccc(C(=O)NNS(=O)(=O)c2ccc(F)cc2)c1	–	inactive: -11.2%
COc1ccc(-c2csc(Nc3cccc(C)n3)n2)cc1	inconclusive: 23.8 µM [inhibitor, single point]	–
COc1ccc(NC(=O)COc2ccc(-c3ccccc3)cc2)cc1	–	inactive: -6.71%
CCOC(=O)c1sc(NC(=O)CCN2C(=O)c3ccccc3C2=O)c(C(=O)OCC)c1C	inconclusive: 15 µM [inhibitor, partial curve]	–
CCCCCCc1cc2cc(-c3nnc(-c4ccccc4)o3)c(=O)oc2cc1O	inconclusive: 3.36 µM [inhibitor, full curve, poor fit]	–
CC(CSc1n[nH]c(=S)s1)c1ccccc1 (centres undefined)	inconclusive: 33.6 µM [inhibitor, partial curve]	–
O=C(Nc1cccc(C(F)(F)F)c1)c1ccc2nc(-c3ccco3)c(-c3ccco3)nc2c1	active: 5.32 µM	–
COc1ccc(-c2noc3c2-c2nc(-c4ccccc4C)sc2CC3)cc1	inconclusive: 13.4 µM [inhibitor, single point]	–
COc1ccc(NC(=O)/C(C#N)=C/c2ccc(OCc3ccccc3F)cc2)cc1	inconclusive: 8.44 µM [inhibitor, single point]	–
C=CCOc1ccc(/C=C2\SC(=S)N(NS(=O)(=O)c3ccc(C)cc3)C2=O)cc1	active: 26.7 µM	–
Oc1ccc2nnc3c(Br)cnn3c2c1	inconclusive: 37.7 µM [inhibitor, partial curve]	–
COc1ccc(C(=O)N2CC3(C)CC2CC(C)(C)C3)cc1 (centres undefined)	inconclusive: 29.9 µM [inhibitor, single point]	–
CC1CN(C(=O)[C@@H]2CCCN2S(=O)(=O)c2ccc(Cl)cc2)CC(C)O1 (some centres undefined)	inconclusive: 10.6 µM [inhibitor, partial curve]	–
CCCCC(=O)NCc1ccc(Cl)cc1	inconclusive: 33.6 µM [inhibitor, partial curve, poor fit]	–

Compound	Potency	max response, negative = inhibition
CCCCCCCNC(=O)C1(CC2CC(c3cccc(Br)c3)=NO2)CCN(C(=O)C2CCCC2)CC1 (centres undefined)	–	inactive: -4.43%
COc1cccc(CN2C(=O)N(C(C)C)C(N(O)C(=O)NC(C)C)C2(C)C)c1OC (centres undefined)	inconclusive: 29.9 µM [inhibitor, single point]	–
C=CCc1cc(OC)ccc1OCCON1C(=O)CCC1=O	inconclusive: 23.8 µM [inhibitor, partial curve]	–
CCC(=O)Nc1ccc2nc3c(=O)[nH]c(=S)[nH]c3nc2c1	inconclusive: 18.9 µM [inhibitor, partial curve]	–
O=C(Nc1nc(-c2ccncc2)cs1)C1COc2ccccc2O1 (centres undefined)	active: 3.36 µM	–
CCCCN(C(=O)CCC(=O)Nc1cc(C)on1)C(C(=O)NC1CCCC1)c1ccccc1C (centres undefined)	inconclusive: 16.8 µM [inhibitor, partial curve, poor fit]	–
COc1ccccc1/C=C/C=N/n1c(-c2ccco2)n[nH]c1=S	–	inconclusive: -35.1% [inhibitor]
CC(C)CSc1nc(N2CCOCC2)c2c(c1C#N)CC(C)(C)SC2	inconclusive: 26.7 µM [inhibitor, partial curve]	–
O=C(NCc1ccc(F)cc1)C1CCN(c2cnccn2)CC1	inconclusive: 26.7 µM [inhibitor, single point]	–
Cc1ccc(C(=O)n2nc(C#N)c(C#N)c2N)cc1	inconclusive: 29.9 µM [inhibitor, single point]	–
COc1ccc(OC)c(C2CC(=O)N3CN(c4ccccc4)CSC3=C2C#N)c1 (centres undefined)	active: 26.7 µM	–
COc1ccc(NC(=O)N/C=C/c2ccco2)cc1	–	inconclusive: -34.2% [inhibitor]
CCOCCCN1CN(Cc2ccco2)CNC1=S	inconclusive: 26.7 µM [inhibitor, partial curve]	–
Cc1cc(O)c(C(C)C)cc1N=Cc1ccc([N+](=O)[O-])cc1	–	inactive: -23.4%
O=C(CCNC(=O)N1CCn2c1nc1ccccc12)NCc1ccc(Cl)cc1	inconclusive: 29.9 µM [inhibitor, single point]	–
C=CCSC1=NC(=O)/C(=C/c2cccs2)S1	inconclusive: 13.4 µM [inhibitor, partial curve]	–
CC(C)c1ccc(NC2CCCN(C(=O)c3cc(C(C)C)nc(N)n3)C2)cc1 (centres undefined)	active: 26.7 µM	–
CC(=O)c1ccc(NC2OC(C)C(O)C(O)C2O)cc1 (centres undefined)	inconclusive: 29.9 µM [inhibitor, single point]	–
CC(=O)c1cccc(NC(=O)N2CCCC2C(=O)Nc2ccc3c(c2)OCO3)c1 (centres undefined)	active: 29.9 µM	–
COc1ccc(NC(=O)CS(=O)(=O)Cc2ccccc2)c([N+](=O)[O-])c1	–	inactive: -20.4%
N#C/C(=N\Nc1ccc(Cl)cc1)C(=O)c1ccccc1	inconclusive: 23.8 µM [inhibitor, partial curve]	–
Cc1cc(NC(=O)CCC(=O)N(CC(=O)NC2CCCC2)c2cccc(C)c2C)no1	inconclusive: 37.7 µM [inhibitor, single point]	–
CCn1c(C)nc2cc(C(=O)NNC(=S)Nc3ccccc3)ccc21	–	inconclusive: -31.2% [inhibitor]

Quoted from the listing:
Potency, C=CCSC1=NC(=O)/C(=C/c2cccs2)S1 is entered as inconclusive: 13.4 µM [inhibitor, partial curve]
Potency, CC1CN(C(=O)[C@@H]2CCCN2S(=O)(=O)c2ccc(Cl)cc2)CC(C)O1 (some centres undefined) is entered as inconclusive: 10.6 µM [inhibitor, partial curve]

The list goes on:

Compound	Potency	max response, negative = inhibition
S=C1NCCNC(=S)NCCOCCOCCN1	active: 26.7 µM	–
C[C@@H](O)[C@@H]1NC(=O)c2cc([N+](=O)[O-])cc(I)c2NCC[C@@H](C(N)=O)NC(=O)CNC1=O	–	inactive: -20.4%
CCc1ccc(C(CNC(=O)c2ccc3c(=O)n(-c4ccccc4F)c(=S)[nH]c3c2)N(C)C)cc1 (centres undefined)	inconclusive: 23.8 µM [inhibitor, single point]	–
COc1ccc(NC(=O)CC2Sc3ncnn3C2=O)cc1 (centres undefined)	inconclusive: 23.8 µM [inhibitor, single point]	–
Cc1nn(-c2ccccc2)c2nc(-c3ccco3)cc(C(=O)O)c12	inconclusive: 18.9 µM [inhibitor, partial curve]	–
Cc1cc(C(=O)NNC(=S)Nc2ccccc2)nn1C	–	inactive: -15%
CC(=O)c1cccc(NC(=O)CSc2ncc(C(=O)Nc3ccccc3)c(=O)n2C)c1	–	inactive: -7.64%
CCOC(=O)c1cc(CC)sc1NC(=O)CN1CCN(C(=O)c2ccco2)CC1	inconclusive: 21.2 µM [inhibitor, partial curve]	–
CC(=O)Nc1ccc(NC(=O)CSc2nnc(NC(=O)c3cccc(F)c3)s2)cc1	inconclusive: 26.7 µM [inhibitor, partial curve]	–
CC(=O)Oc1ccccc1N(C(C)=O)S(=O)(=O)c1ccc2ccccc2c1	inconclusive: 18.9 µM [inhibitor, partial curve]	–
CCC(CC)NC(=O)c1cccc([N+](=O)[O-])c1C	–	inactive: 6.62%
Cc1cccc(CCNC(=O)C2CCCN(S(=O)(=O)c3cnc[nH]3)C2)c1 (centres undefined)	inconclusive: 29.9 µM [inhibitor, partial curve]	–
O=C(N/N=C/c1ccc(Sc2nc3ccccc3[nH]2)o1)c1ccncc1	inconclusive: 29.9 µM [inhibitor, partial curve]	–
COc1ccc(N2Cc3cccc(C(=O)N4CCN(C(=O)c5ccco5)CC4)c3C2=O)cc1	inconclusive: 33.6 µM [inhibitor, single point]	–
O=C(c1cccc(Cl)c1)N1CCN(Cc2c[nH]c3ccccc23)CC1	–	inactive: -5.08%
Oc1ccc(CNc2ccccc2O)cc1	inconclusive: 33.6 µM [inhibitor, single point]	–
O=C(Cc1ccc(Cl)cc1)NCC(=O)N1CCN(c2ccccc2)CC1	inconclusive: 37.7 µM [inhibitor, single point]	–
Cc1ccc([C@H]2N[C@]3(CCCN(CC4CCCCC4)C3=O)[C@H]3C(=O)N(C)C(=O)[C@@H]23)cc1	–	inactive: -2.94%
COc1ccccc1COc1ccc2c(C)c(CCC(=O)O)c(=O)oc2c1C	–	inactive: -14%
S=C(NCc1ccccc1)N1CCN(c2ccccc2)CC1	–	inactive: -2.78%
COc1cccc2cc(/C(C)=N/Nc3nc(-c4cc(C)ccc4C)cs3)c(=O)oc12	inconclusive: 11.9 µM [inhibitor, partial curve]	–
CCOc1cc(C2C(C#N)=C(N)Oc3n[nH]c(CC)c32)ccc1OCCN1CCOCC1 (centres undefined)	inconclusive: 29.9 µM [inhibitor, partial curve]	–
CC(=O)C1=C(O)C(=O)N(c2ccc(Br)cn2)C1c1ccc(Br)cc1 (centres undefined)	–	inactive: -16.3%
